This experiment addresses recombinant HLA-DQ8 protein (human). Put plainly: DELFIA immunoassay, His-tagged HLA-DQ8 captured on nickel plates, Europium-streptavidin detection.

For one molecule, binding results are on record in patent US20220306722A1.

Results are given in words; binding and its absence hold for the method and conditions named. Some results given as binding are weak or reduced against the parent protein; the word gives no strength.

With HLVEALYLVCGERGG (N-terminal biotin) [biotinylated InsB:9-23 peptide], the binding entry is recorded as “binds”.
